Results are given in words; binding and its absence hold for the method and conditions named. In cells and extracts the contact can be indirect. Here binding means that the protein was enriched with, or labelled near, the bait; the list need not be complete.
Molecular target: FLAG-tagged ΦKZ014 (ΦKZ014-FLAG) (Pseudomonas phage ΦKZ)
Assay: affinity purification with mass spectrometry; anti-FLAG pull-down of ectopically expressed ΦKZ014-FLAG from infected cells at 1 mM or 10 mM magnesium; eluted with FLAG peptide; MS of the eluates

Binder	binding
50S ribosomal protein bL35 (protein, UniProt Q9I0A1 1-64) MPKMKTKSGAAKRFKKTAGGLKHKHAFKSHILTKMTTKRKRQLRGTSMLNKSDVARVERSLRLR	binds
50S ribosomal protein uL30 (protein, UniProt Q9HWF3 1-58) MATVKVTLVKSLNGRLANHKACVKGLGLRRINHTVEVQDTPENRGMINKAYYLLRVEG	binds
